Laboratory results from PubChem BioAssay AID540276 (National Center for Advancing Translational Sciences (NCATS), 2011).
“And” between values parts separate entries of the source, which are not always exact repeats. Equal values may be shown once. About 5,400 (1.8%) of roughly 300,000 compounds were called active. The inconclusive results got no clear call from the source; some entries with a clear call stand among them for comparison. Calls come from the whole dose curve; tested in HEK293 cells. A potency beside an inconclusive call is a rough fit, not a confirmed value.

Assay: qHTS for inhibitors of binding or entry into cells for Marburg Virus
Conditions: Marburg virus pseudotyped entry inhibition, cell reporter; activity change, negative = inhibition: at 37.8 µM (top of the series) unless noted
% is set by controls: 0 for no effect and ±100 for the full control effect; potency is the fitted concentration of half-maximal effect.

**Q.** For `CC(=O)Nc1ccc(N(C)S(C)(=O)=O)cc1`, which “activity change, negative = inhibition” value is on record?
**A.** inactive: -1.99%

**Q.** Which Potency does the source give for `C=CS(=O)(=O)c1ccc(Oc2ccc(S(=O)(=O)C=C)cc2)cc1` here?
**A.** inconclusive: 5.8 µM [inhibitor, full curve, poor fit] and inconclusive: 2 µM [inhibitor, full curve, poor fit]

**Q.** With `O=C1c2cccc(OCC(=O)N3CCCc4ccccc43)c2CCN1Cc1ccc(Br)cc1` as the compound, how does the Potency read?
**A.** inconclusive: 20 µM [inhibitor, single point]

**Q.** Which “activity change, negative = inhibition” value does the source give for `COc1ccc(C(=S)N2CCOCC2)cc1OC(=O)c1ccc(C)cc1` here?
**A.** inactive: -3.18% [at 46.1 µM]

**Q.** For `c1ccc(OCc2nc(-c3cccs3)no2)cc1`, which Potency is on record?
**A.** inconclusive: 0.651 µM [activator, full curve, poor fit]

**Q.** With `CCOC(=O)N1CCC(N2CCN(S(=O)(=O)c3ccc(NC(C)=O)cc3)CC2)CC1` as the compound, how does the Potency read?
**A.** inactive

**Q.** Which Potency does the source give for `COc1ccc(C(=O)Nc2cccc(-c3ccc4nncn4n3)c2)cc1` here?
**A.** inconclusive: 10 µM [inhibitor, partial curve, poor fit]

**Q.** Which Potency does the source give for `Cc1ccoc1C(=O)Nc1ccc2ccccc2c1` here?
**A.** inconclusive: 1.78 µM [inhibitor, partial curve, poor fit]

**Q.** For `N#Cc1cc(C(=O)c2ccccc2OCC(=O)Nc2ccccc2Cl)cn(C2CCCCC2)c1=O`, which Potency is on record?
**A.** inconclusive: 1.3 µM [inhibitor, full curve, poor fit]

**Q.** For `CC1(C)C(C=C(Cl)Cl)C1C(=O)N(Cc1cccc(Cl)c1)C1CCS(=O)(=O)C1` (stereo unspecified), which Potency is on record?
**A.** inconclusive: 1.3 µM [inhibitor, partial curve, poor fit]

**Q.** With `CCN(CC(=O)Nc1c(F)cccc1F)C(=O)c1ccc(S(=O)(=O)N2CCC(C)CC2)cc1` as the compound, how does the Potency read?
**A.** inconclusive: 0.794 µM [inhibitor, full curve]

**Q.** Which Potency does the source give for `N#C/C(=C/c1ccc(Sc2nc3ccccc3[nH]2)o1)c1cccc(Br)c1` here?
**A.** inconclusive: 10 µM [inhibitor, partial curve, poor fit]

**Q.** Which “activity change, negative = inhibition” value does the source give for `COC(=O)[C@@]1(Cc2ccc(OC)cc2)[C@H]2c3cc(C(=O)N4CCCC4)n(Cc4ccc(OC)c(OC)c4)c3C[C@H]2CN1C(=O)c1ccccc1` here?
**A.** inactive: -43.9%

**Q.** For `CNC(=S)N/N=C(\C)c1ccc2c(c1)OCCO2`, which Potency is on record?
**A.** inconclusive: 2.51 µM [activator, single point]

**Q.** With `CCc1nn(CCCC(=O)N2CCN(c3cc(Cl)ccc3C)CC2)c(=O)c2cc3occc3n12` as the compound, how does the “activity change, negative = inhibition” value read?
**A.** inactive: 13.4% [at 46.1 µM]

**Q.** With `CCOc1cc(C(=O)Nc2ccc(S(=O)(=O)Nc3nnc(CC)s3)cc2)cc(OCC)c1OCC` as the compound, how does the Potency read?
**A.** inconclusive: 0.631 µM [inhibitor, full curve, poor fit]

**Q.** With `Cc1ccc(NC(=O)NCC2CC2(Cl)Cl)cc1` (stereo unspecified) as the compound, how does the “activity change, negative = inhibition” value read?
**A.** inactive: 3.17% [at 46.1 µM]

**Q.** With `CCOC(=O)N1CCC(NC(=O)C(NS(=O)(=O)c2ccc3c(c2)CCN3C(=O)CC)C(C)C)CC1` (stereo unspecified) as the compound, how does the Potency read?
**A.** inconclusive: 3.16 µM [inhibitor, single point]

**Q.** With `CCCc1cc(=O)[nH]c(SCC(=O)Nc2nonc2C)n1` as the compound, how does the Potency read?
**A.** inconclusive: 1 µM [inhibitor, full curve, poor fit]

**Q.** Which “activity change, negative = inhibition” value does the source give for `Cc1ccc(Cl)cc1N1CCN(CC(=O)NC2CCCc3ccccc32)CC1` (stereo unspecified) here?
**A.** inactive: -58.3%

**Q.** With `Cc1ccc(NC(=O)c2ocnc2C)cc1Cl` as the compound, how does the Potency read?
**A.** inconclusive: 2.06 µM [activator, partial curve, poor fit]

**Q.** Which Potency does the source give for `Cc1ccc(CNC(=O)CCS(=O)(=O)c2ccc(Br)s2)o1` here?
**A.** inconclusive: 0.259 µM [inhibitor, single point]

**Q.** With `Cc1coc(NC(=O)CSc2nc(-c3ccc(Cl)cc3)cc(C(F)(F)F)c2C#N)n1` as the compound, how does the Potency read?
**A.** inconclusive: 20.6 µM [inhibitor, single point]

**Q.** For `CCOC(=O)c1c(NC(=O)c2c(Br)cnn2CC)sc(C)c1C`, which Potency is on record?
**A.** inconclusive: 0.259 µM [inhibitor, partial curve, poor fit]

**Q.** For `COC(=O)C1CCN(C(=O)c2ccc(OC3CCN(Cc4ccccn4)CC3)cc2)CC1`, which Potency is on record?
**A.** inconclusive: 17.8 µM [activator, single point]

**Q.** Which Potency does the source give for `O=C(O)C1CCCCN1S(=O)(=O)c1cccc2nsnc12` (stereo unspecified) here?
**A.** inconclusive: 2.51 µM [activator, full curve, poor fit]

**Q.** Which Potency does the source give for `S=c1[nH]cc(-c2ccc(Cl)cc2)n1-c1ccccc1` here?
**A.** inconclusive: 0.0231 µM [inhibitor, full curve, poor fit]

**Q.** Which “activity change, negative = inhibition” value does the source give for `Cc1ccc(O)c(CNc2cccc(C)n2)c1` here?
**A.** inactive: -6.62%

**Q.** For `OCC1OC(n2cnc3c(/C=C(\O)c4ccccc4)ncnc32)C(O)C1O` (stereo unspecified), which Potency is on record?
**A.** inconclusive: 35.5 µM [inhibitor, single point]

**Q.** With `Cc1cn2c(=O)cc(COc3ccc(NC(=O)c4ccccc4C)cc3)nc2s1` as the compound, how does the Potency read?
**A.** inconclusive: 14.1 µM [activator, single point]

**Q.** For `COc1ccc(C)cc1NC(=O)CSc1nnc(COc2ccccc2)n1Cc1ccco1`, which Potency is on record?
**A.** inconclusive: 29.1 µM [inhibitor, single point]

**Q.** For `CCC(=O)N1CCc2cc(Br)cc(S(=O)(=O)NCc3ccccc3OC)c21`, which “activity change, negative = inhibition” value is on record?
**A.** inactive: -9.56% [at 46.1 µM]

**Q.** With `NC(=O)COC(=O)C12CC3CC(CC(O)(C3)C1)C2` as the compound, how does the Potency read?
**A.** inconclusive: 5.62 µM [inhibitor, single point]

**Q.** Which “activity change, negative = inhibition” value does the source give for `COc1ccccc1-c1nc(SCc2ccccn2)n[nH]1` here?
**A.** inactive: 0.0686%

**Q.** Which Potency does the source give for `CCC(C)(C(=O)NC1CCCC1)N(Cc1cccs1)C(=O)c1ccc2c(c1)OCO2` (stereo unspecified) here?
**A.** inconclusive: 18.4 µM [inhibitor, single point]

**Q.** For `O=C1Nc2cc3c(cc2C1=O)sc1ccccc13`, which Potency is on record?
**A.** inconclusive: 22.4 µM [inhibitor, single point]

**Q.** With `CCOC(=O)c1nc(Nc2ccccc2OC)c2ccccc2n1` as the compound, how does the “activity change, negative = inhibition” value read?
**A.** inactive: -13.3% [at 46.1 µM]

**Q.** With `Cc1nc(-c2ccc(S(=O)(=O)N3CCN(c4cccc(C)c4C)CC3)cc2)co1` as the compound, how does the Potency read?
**A.** inconclusive: 22.4 µM [inhibitor, single point]

**Q.** Which Potency does the source give for `CN(CC(=O)Nc1ccccc1Br)C(=O)c1cccc(S(=O)(=O)N2CCc3ccccc32)c1` here?
**A.** inconclusive: 35.5 µM [inhibitor, single point]

**Q.** With `O=C(Nc1cccc(Cl)c1)c1cnn2cccnc12` as the compound, how does the Potency read?
**A.** inconclusive: 2.31 µM [activator, partial curve, poor fit]

**Q.** For `Cc1oc(CC(C)C)cc1C(=O)Nc1cccc2ccccc12`, which “activity change, negative = inhibition” value is on record?
**A.** inactive: -2.81%

**Q.** For `Cc1ccc2ccc(C)[n+](CCCS(=O)(=O)[O-])c2c1`, which Potency is on record?
**A.** inconclusive: 28.2 µM [activator, partial curve, poor fit]

**Q.** With `Cc1ccc(NC(=O)CN2C(=O)N/C(=C/c3cccn3-c3ccc(C(=O)O)cc3)C2=O)cc1` as the compound, how does the Potency read?
**A.** inconclusive: 7.08 µM [inhibitor, partial curve, poor fit]

**Q.** With `CC1CCC(C(C)C)C(OC(=O)Cn2c(-c3ccc(Br)cc3)[n+](C)c3ccccc32)C1` (stereo unspecified) as the compound, how does the Potency read?
**A.** inconclusive: 15.8 µM [inhibitor, partial curve, poor fit]

**Q.** Which “activity change, negative = inhibition” value does the source give for `CC(=O)Nc1cccc(C(=O)OCCCOc2ccc(F)cc2)c1` here?
**A.** inactive: 0.373% [at 46.1 µM]

**Q.** With `Cc1oc2ccc(O)c(CN3CCCCC3)c2c1C(=O)Nc1cccc(C(F)(F)F)c1` as the compound, how does the Potency read?
**A.** active: 10 µM

**Q.** For `CC(C(=O)c1ccc(-c2ccccc2)cc1)[n+]1cccc(C(N)=O)c1` (stereo unspecified), which “activity change, negative = inhibition” value is on record?
**A.** inactive: 11.9%

**Q.** For `CC(C)(C)OC(=O)N1CCN(C(=O)c2[nH]cnc2C(=O)Nc2cccc(Cl)c2)CC1`, which “activity change, negative = inhibition” value is on record?
**A.** inactive: -0.421%

**Q.** For `COc1ccc(NC(=O)COC(=O)c2ccc(OC)c(S(=O)(=O)N3CCCC3)c2)cc1OC`, which “activity change, negative = inhibition” value is on record?
**A.** inactive: 8.14%

**Q.** For `Cn1cc(C(=O)N2CCOCC2)c2ccccc21`, which Potency is on record?
**A.** inconclusive: 6.31 µM [inhibitor, full curve, poor fit]

**Q.** For `CN(C)C(CNC(=O)Cc1ccc(Br)cc1)c1ccccc1` (stereo unspecified), which Potency is on record?
**A.** inconclusive: 35.5 µM [inhibitor, single point]

**Q.** With `O=C(Cn1nc2n(c1=O)-c1ccccc1SC2)N/N=C/c1ccncc1` as the compound, how does the Potency read?
**A.** inconclusive: 1.26 µM [activator, single point]

**Q.** With `CC(C)[C@H](NC(=O)N1CC(=O)Nc2ccccc21)C(=O)N1CCC(C(=O)O)CC1` as the compound, how does the Potency read?
**A.** inconclusive: 1.41 µM [activator, partial curve, poor fit]

**Q.** Which “activity change, negative = inhibition” value does the source give for `CCOc1cccc2cc(-c3cn4cc(C)ccc4n3)c(=O)oc12` here?
**A.** inactive: -8.35%

**Q.** Which “activity change, negative = inhibition” value does the source give for `Cc1ccc(S(=O)(=O)Oc2ccc(/C=C(/NC(=O)c3ccccc3)C(=O)Nc3ccccc3)cc2)cc1` here?
**A.** inactive: -9.38%

**Q.** For `C=CCN1C(c2cccc(C(F)(F)F)c2)=CS/C1=C(/C#N)c1nnc(N2CCOCC2)n1-c1ccccc1`, which “activity change, negative = inhibition” value is on record?
**A.** inactive: -43.6%

**Q.** For `CCOc1ccc(S(=O)(=O)N2CCCC(C(=O)NCc3ccncc3)C2)cc1C` (stereo unspecified), which Potency is on record?
**A.** inconclusive: 13 µM [inhibitor, partial curve, poor fit]

**Q.** With `COc1ccc(Cl)cc1CC=NNC(=O)c1cccc(C)c1O` as the compound, how does the “activity change, negative = inhibition” value read?
**A.** inactive: 12.6%

**Q.** Which Potency does the source give for `CN(C)c1ccc(C2C=C(c3ccccc3)Nc3nnnn32)cc1` (stereo unspecified) here?
**A.** inconclusive: 5.01 µM [activator, partial curve]

**Q.** For `Cc1noc(C)c1S(=O)(=O)N1CCC2(CC1)OCCO2`, which Potency is on record?
**A.** inconclusive: 0.794 µM [activator, full curve, poor fit]

**Q.** For `CN(CC(=O)Nc1ccccc1Br)C(=O)CN1CCN(c2ccccc2Cl)CC1`, which Potency is on record?
**A.** inconclusive: 35.5 µM [inhibitor, single point]

**Q.** With `CC(C)c1ccccc1NC(=O)CNC(C)c1ccc(F)cc1` (stereo unspecified) as the compound, how does the Potency read?
**A.** inconclusive: 10 µM [inhibitor, partial curve, poor fit]

**Q.** With `O=C(NC1CCCN(CCc2ccccc2)C1)C1CCCC1` (stereo unspecified) as the compound, how does the Potency read?
**A.** inconclusive: 35.5 µM [inhibitor, single point]

**Q.** For `O=C(NCC1CCCN(C(=O)NCc2ccccc2)C1)c1ccc2c(c1)OCO2` (stereo unspecified), which Potency is on record?
**A.** inconclusive: 14.6 µM [activator, partial curve, poor fit]

**Q.** With `O=C(COC(=O)CNC(=O)c1ccccc1)Nc1nc(-c2ccccc2)cs1` as the compound, how does the Potency read?
**A.** inconclusive: 6.31 µM [activator, single point]

**Q.** With `COc1ccccc1N1CCN(Cc2c(F)cccc2Cl)CC1` as the compound, how does the “activity change, negative = inhibition” value read?
**A.** inactive: -5.37%
